These results are taken from patent US6699677.

The target in the assay is T1, human CCR10 (CCX CKR) with N-terminal FLAG epitope, stably expressed on HEK293 cells (human), Q9NPB9.
T1 chain: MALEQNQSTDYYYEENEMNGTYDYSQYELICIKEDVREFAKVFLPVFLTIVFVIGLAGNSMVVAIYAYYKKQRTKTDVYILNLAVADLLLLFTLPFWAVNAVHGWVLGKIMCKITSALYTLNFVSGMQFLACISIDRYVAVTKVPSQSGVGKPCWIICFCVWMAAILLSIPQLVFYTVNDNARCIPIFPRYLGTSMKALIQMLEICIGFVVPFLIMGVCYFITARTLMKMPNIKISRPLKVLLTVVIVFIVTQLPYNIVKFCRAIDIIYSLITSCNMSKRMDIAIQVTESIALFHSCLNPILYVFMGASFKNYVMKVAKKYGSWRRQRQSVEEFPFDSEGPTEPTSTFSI
In words: summary of Example 1; assay for this ligand not described. Particulars: remark: other sources report otherwise.

No constants are given. Whether binding was seen depends on the method and setting. Some entries that bind do so weakly or less than the wild type. Sequences can lack the tags named with a protein.

B1: BLC, O43927 23-109 (ligand)
chain: VLEVYYTSLRCRCVQESSVFIPRRFIDRIQILPRGNGCPRKEIIVWKKNKSIVCVDPQAEWIQRMMEVLRKRSSSTLPVPVFKRKIP
With B1, the binding result is “binds”.
